Test results from article PMC11845855.

The chains behind the UniProt entries cited, without tags or fusion partners.
UniProt D4A523: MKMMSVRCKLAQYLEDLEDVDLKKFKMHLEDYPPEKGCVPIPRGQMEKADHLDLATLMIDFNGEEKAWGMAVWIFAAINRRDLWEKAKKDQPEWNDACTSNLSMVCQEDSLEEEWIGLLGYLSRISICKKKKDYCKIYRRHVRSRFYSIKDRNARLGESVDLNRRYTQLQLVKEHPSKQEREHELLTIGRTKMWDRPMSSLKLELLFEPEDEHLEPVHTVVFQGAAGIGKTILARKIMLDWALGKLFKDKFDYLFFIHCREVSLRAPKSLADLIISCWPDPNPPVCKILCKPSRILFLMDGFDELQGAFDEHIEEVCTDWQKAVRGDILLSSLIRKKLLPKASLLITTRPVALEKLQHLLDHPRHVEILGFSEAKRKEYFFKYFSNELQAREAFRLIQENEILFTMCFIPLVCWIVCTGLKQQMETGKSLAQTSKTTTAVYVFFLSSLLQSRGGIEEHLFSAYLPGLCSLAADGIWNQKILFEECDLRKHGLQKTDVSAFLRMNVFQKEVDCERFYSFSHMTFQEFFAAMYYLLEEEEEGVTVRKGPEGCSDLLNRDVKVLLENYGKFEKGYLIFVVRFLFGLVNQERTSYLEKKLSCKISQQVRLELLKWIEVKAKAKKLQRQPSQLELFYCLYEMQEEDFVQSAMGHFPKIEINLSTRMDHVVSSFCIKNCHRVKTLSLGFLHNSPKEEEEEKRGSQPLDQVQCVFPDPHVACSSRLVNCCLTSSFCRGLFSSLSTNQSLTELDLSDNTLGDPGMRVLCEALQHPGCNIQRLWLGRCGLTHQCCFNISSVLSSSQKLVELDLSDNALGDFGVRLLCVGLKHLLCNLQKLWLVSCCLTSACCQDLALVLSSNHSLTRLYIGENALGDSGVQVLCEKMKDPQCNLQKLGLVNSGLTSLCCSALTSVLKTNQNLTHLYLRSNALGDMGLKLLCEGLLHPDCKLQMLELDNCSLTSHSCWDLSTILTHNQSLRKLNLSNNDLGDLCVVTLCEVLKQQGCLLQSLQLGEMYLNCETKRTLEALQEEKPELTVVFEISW
UniProt Q6P9T8: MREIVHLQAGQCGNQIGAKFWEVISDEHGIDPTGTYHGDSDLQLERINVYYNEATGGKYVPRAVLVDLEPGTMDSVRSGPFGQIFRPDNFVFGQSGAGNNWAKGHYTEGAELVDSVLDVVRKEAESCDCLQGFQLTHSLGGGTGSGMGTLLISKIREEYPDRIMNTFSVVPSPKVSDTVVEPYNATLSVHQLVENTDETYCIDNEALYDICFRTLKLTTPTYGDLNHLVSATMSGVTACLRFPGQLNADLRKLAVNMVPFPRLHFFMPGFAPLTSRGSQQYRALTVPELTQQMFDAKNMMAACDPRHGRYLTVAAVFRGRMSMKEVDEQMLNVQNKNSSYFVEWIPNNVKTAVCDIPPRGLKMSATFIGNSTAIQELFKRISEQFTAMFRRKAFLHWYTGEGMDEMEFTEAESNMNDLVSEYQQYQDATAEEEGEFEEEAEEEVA

target: T1, Flag-USP25 (ubiquitin-specific protease 25), expressed in neonatal rat primary cardiomyocytes (UniProt P57080); experiment: affinity purification with mass spectrometry; NRPCs transfected with Flag-USP25, H/R treatment; anti-Flag and protein G-Sepharose beads; bound proteins by LC-MS/MS; done twice
T1 sequence: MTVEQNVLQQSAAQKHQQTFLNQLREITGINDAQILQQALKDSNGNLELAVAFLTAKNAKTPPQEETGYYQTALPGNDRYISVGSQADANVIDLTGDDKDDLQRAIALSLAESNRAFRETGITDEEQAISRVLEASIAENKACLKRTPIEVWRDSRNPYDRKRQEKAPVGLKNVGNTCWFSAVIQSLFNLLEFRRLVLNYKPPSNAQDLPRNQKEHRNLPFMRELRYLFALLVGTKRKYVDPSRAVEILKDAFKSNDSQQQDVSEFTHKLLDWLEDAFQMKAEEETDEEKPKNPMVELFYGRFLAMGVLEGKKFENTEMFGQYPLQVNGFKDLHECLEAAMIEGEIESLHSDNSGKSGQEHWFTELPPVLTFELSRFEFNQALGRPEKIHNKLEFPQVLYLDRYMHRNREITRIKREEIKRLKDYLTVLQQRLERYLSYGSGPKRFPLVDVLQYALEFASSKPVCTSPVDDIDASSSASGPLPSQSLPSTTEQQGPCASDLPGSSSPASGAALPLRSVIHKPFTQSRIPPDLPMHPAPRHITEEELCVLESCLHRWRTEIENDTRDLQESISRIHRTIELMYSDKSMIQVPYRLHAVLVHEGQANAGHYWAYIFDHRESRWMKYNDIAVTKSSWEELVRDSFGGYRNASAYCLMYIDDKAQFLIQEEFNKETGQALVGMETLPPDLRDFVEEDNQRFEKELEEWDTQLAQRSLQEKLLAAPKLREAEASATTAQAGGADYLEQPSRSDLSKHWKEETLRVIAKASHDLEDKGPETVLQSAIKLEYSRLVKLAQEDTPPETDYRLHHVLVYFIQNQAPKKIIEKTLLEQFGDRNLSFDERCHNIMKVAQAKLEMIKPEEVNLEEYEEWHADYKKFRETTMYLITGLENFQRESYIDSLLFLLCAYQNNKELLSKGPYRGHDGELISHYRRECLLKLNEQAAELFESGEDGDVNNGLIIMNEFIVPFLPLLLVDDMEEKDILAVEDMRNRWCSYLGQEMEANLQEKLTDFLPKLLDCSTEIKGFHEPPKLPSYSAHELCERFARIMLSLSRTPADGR

binding | Substance
binds | Ddx17, endogenous in neonatal rat primary cardiomyocytes
binds | NLRP3 (NLR family pyrin domain-containing 3), endogenous in neonatal rat primary cardiomyocytes (from UniProt D4A523 1-1035)
binds | Tubb4b, endogenous in neonatal rat primary cardiomyocytes (from UniProt Q6P9T8 1-445)

These are yes or no findings as the source states them, for the method shown. Binding seen in cells or lysates may run through a third protein. Here binding means that the protein was enriched with, or labelled near, the bait; the list need not be complete. Tags and fused reporters may be left off the sequences shown.
